Data reported in PubChem BioAssay AID485314 (National Center for Advancing Translational Sciences (NCATS), 2010).
The whole screen tested about 340,000 compounds, of which about 4,500 (1.3%) were called active. Inconclusive results, whose numbers are uncertain, are shown with a selection of clear calls. The call rests on the fitted dose curve; in most records, active means well fitted inhibition curve with a large enough effect; inconclusive means small, poorly fitted or top-dose-only effect, or another doubt; inactive means no such curve, though single readings can be large or run the other way. Potencies beside an inconclusive call are fits to weak or partial responses and may not hold up.

target: DNA polymerase beta (Homo sapiens) (UniProt P06746); assay: qHTS Assay for Inhibitors of DNA Polymerase Beta; settings: Pol beta primer extension/strand displacement, fluorescence kinetic; activity change, negative = inhibition: at 114 µM (top of the series)
Method in brief: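 Reaction started by 50 nM substrate onto compound-treated Pol beta (10 nM, 15 min preincubation, room temperature); plates read at 0 min and 10 min. Normalized concentration-effect data fitted by four-parameter Hill equation.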
On the % scale 0 is the no-effect control and ±100 the full control effect; potency means the concentration at half of the fitted maximal effect.

SMILES	Potency	activity change, negative = inhibition
COCCn1nnnc1C(C(C)C)N(Cc1ccccc1)Cc1cc2cc(OC)ccc2[nH]c1=O (centres undefined)	inconclusive: 25.1 µM [inhibitor, partial curve, poor fit]	–
COc1ccc2nc(NC(=O)c3nc(S(=O)(=O)Cc4ccccc4F)ncc3Cl)sc2c1	active: 5.62 µM	–
O=C(Cn1c(=O)c2cccn2c2cccnc21)N1CCN(c2ccc(Cl)cc2)CC1	inconclusive: 10 µM [inhibitor, partial curve]	–
COc1cc2c(c(OC)c1OC)-c1c(cc3c(c1O)OCO3)C[C@@H](C)[C@@H](C)C2	inconclusive: 100 µM [inhibitor, single point]	–
Cc1cccc(C(=O)O)c1NC(=O)Cc1cccc2ccccc12	inconclusive: 14.1 µM [inhibitor, partial curve]	–
COc1cccc(-c2n[nH]c(=S)n2Cc2ccco2)c1	–	inconclusive: -64.4% [inhibitor]
Cc1c(CCOC(=O)c2ccc(N3CCOCC3)c([N+](=O)[O-])c2)sc[n+]1CC#N	–	inconclusive: -83.8% [inhibitor]
COc1ccc(Cl)cc1C(=O)Nc1ccc(N(C)C(C)=O)cc1	inconclusive: 100 µM [inhibitor, partial curve]	–
Cc1ncc(CN2CCN(C(C)C)C(CCO)C2)s1 (centres undefined)	inconclusive: 0.447 µM [inhibitor, partial curve, poor fit]	–
COC(=O)\C(C(C)=O)=C(/C=C/C=C/N(C)C)N(C)C	active: 22.4 µM	–
CCOCCCNC(=O)CN1C(=O)COc2ccc(S(=O)(=O)N3CCC(C)CC3)cc21	inconclusive: 0.126 µM [inhibitor, full curve, poor fit]	–
O=C(CNC(=O)c1ccc(Br)cc1)NCC(=O)OCC(=O)c1ccc(F)cc1	–	inconclusive: -40.5% [inhibitor]
CC1CCc2c(C(=O)Nc3ccc(N4CCOCC4)cc3)csc2C1 (centres undefined)	inconclusive: 100 µM [inhibitor, single point]	–
CC(C)(C)c1cc(C(=O)N/N=C/c2ccc([N+](=O)[O-])s2)n[nH]1	inconclusive: 12.6 µM [inhibitor, partial curve, poor fit]	–
COCCNc1ccc(-c2nc(-c3ccncc3)no2)cc1[N+](=O)[O-]	inconclusive: 56.2 µM [inhibitor, partial curve]	–
CCN1CCN(CCC(=O)Nc2cc(C)ccc2C)CC1	inconclusive: 0.562 µM [inhibitor, full curve, poor fit]	–
O=C(Nc1ccc(F)cc1F)c1cccc2c1C(=O)N(C1CCCCC1)C2	active: 12.6 µM	–
C=C(C)C1CC=C(C)/C(=N\NC(=S)Nc2ccc(C)cc2)C1 (centres undefined)	inactive	–
O=C(Nc1ccc(S(=O)(=O)Nc2nccs2)cc1)c1ccc(N2C(=O)c3ccccc3C2=O)cc1	active: 22.4 µM	–
CCc1ccc(Cn2c(CNS(=O)(=O)c3ccc([N+](=O)[O-])cc3)nc3cccnc32)cc1	inactive	–
Cc1cccc(Nc2nn3c(=O)c4cc5c(cc4nc3s2)OCO5)c1	active: 3.16 µM	–
CCOC(=O)c1cc(-c2ccc(OC)c(S(=O)(=O)NC3CCCCC3)c2)on1	inconclusive: 79.4 µM [inhibitor, single point]	–
CCN(C(=O)Cn1nc(Cc2ccncc2)c2ccccc2c1=O)c1cccc(Cl)c1	inactive	–

Filtered by structure: the entries above containing an NH in an aromatic ring
SMILES	Potency	activity change, negative = inhibition
COCCn1nnnc1C(C(C)C)N(Cc1ccccc1)Cc1cc2cc(OC)ccc2[nH]c1=O (centres undefined)	inconclusive: 25.1 µM [inhibitor, partial curve, poor fit]	–
COc1cccc(-c2n[nH]c(=S)n2Cc2ccco2)c1	–	inconclusive: -64.4% [inhibitor]
CC(C)(C)c1cc(C(=O)N/N=C/c2ccc([N+](=O)[O-])s2)n[nH]1	inconclusive: 12.6 µM [inhibitor, partial curve, poor fit]	–

Next part.

SMILES	Potency	activity change, negative = inhibition
COc1ccc(CCNC(=O)CN2C(=O)COc3ccc(C)cc32)cc1OC	inconclusive: 89.1 µM [inhibitor, single point]	–
CCOc1ccccc1NC(=O)Cn1c(=O)n(Cc2ccccc2)c(=O)c2c1c1cc(C)ccc1n2C	inactive	–
Cc1ccc(-c2csc3nnc(SCC(=O)Nc4nsc(-c5ccccc5)n4)n23)cc1	inactive	–
Cc1coc2c(C)c3oc(=O)c(CCC(=O)N[C@@H](C)C(=O)N[C@@H](Cc4ccccc4)C(=O)O)c(C)c3cc12	inconclusive: 20 µM [inhibitor, full curve, poor fit]	–
CN(C)C(=O)c1cn(-c2ccccc2)nc1-c1cc2ccccc2o1	inactive	–
COc1ccc(NC(=O)c2sc3nc4c(cc3c2N)CCCCCC4)c(OC)c1	inconclusive: 12.6 µM [inhibitor, single point]	–
O=C(CC1=NC2(CCCC2)Cc2ccccc21)N1CCOCC1	inconclusive: 3.98 µM [inhibitor, single point]	–
CCCn1c(N)c(N(CCOC)C(=O)c2cc3c(s2)CCCCC3)c(=O)[nH]c1=O	inactive	–
N#Cc1c(NC(=O)CN2CCN(S(=O)(=O)c3ccc4c(c3)OCCO4)CC2)sc2c1CCC2	inconclusive: 89.1 µM [inhibitor, single point]	–
COC(=O)CCC(=O)N1CCCC(CNS(=O)(=O)c2ccc(OC)cc2)C1 (centres undefined)	inactive	–
O=C(COc1cccc2cccnc12)N1CCc2ccccc21	inconclusive: 44.7 µM [inhibitor, partial curve]	–
COc1cccc(CNC(=O)Cc2csc3nc(-c4ccccc4)cn23)c1	inactive	–
CCCCC(=O)O[C@H]1CC[C@H]2[C@@H]3CCc4cc(O)ccc4[C@H]3CC[C@]12C	inconclusive: 11.2 µM [inhibitor, partial curve]	–
O=[N+]([O-])c1ccc(NC(=S)N2CCN(c3ccccn3)CC2)cc1	inconclusive: 35.5 µM [inhibitor, single point]	–
COC(=O)c1c(/N=C/N(C)C)sc2c1CCN(c1ncc(C(F)(F)F)cc1Cl)C2	inactive	–
C=CCc1c(C)nc(-c2ccccc2)nc1Nc1ccccc1O	inconclusive: 1.41 µM [inhibitor, full curve]	–
Cc1cc(C)cc(NC(=O)NCC(O)COc2ccc([N+](=O)[O-])cc2)c1 (centres undefined)	inconclusive: 100 µM [inhibitor, single point]	–
Cc1cc(C)nc(N/N=C/c2cccc([N+](=O)[O-])c2)n1	inconclusive: 0.316 µM [inhibitor, full curve]	–
CC1(C)CC(=O)C(C(C2=C(O)CC(C)(C)CC2=O)c2ccc([N+](=O)[O-])cc2)C(=O)C1 (centres undefined)	inactive	–
CCc1ccc(-n2c(SCC(=O)N3Cc4ccccc4CC3C(=O)O)nnc2-c2ccncc2)cc1 (centres undefined)	inactive	–
CCCCC(=O)Nc1ccc(C(=O)NNC(=O)CCCOc2ccc(Cl)cc2Cl)cc1	inconclusive: 22.4 µM [inhibitor, single point]	–
CCOc1ccc(NC(=O)Cn2cc(C(=O)c3ccc(OC)cc3)c(=O)c3cc4c(cc32)OCO4)cc1	inconclusive: 10 µM [inhibitor, partial curve, poor fit]	–
O=C1CSC(=S)N1/N=C/c1ccc(O)c(O)c1O	active: 0.316 µM	–

SMILES	Potency	activity change, negative = inhibition
CCC(Cc1ccccc1)NC(=O)CCS(=O)(=O)c1cc2c(cc1Cl)NC(=O)CO2 (centres undefined)	inactive	–
CC(C)NC(=O)c1cc(-c2ccco2)nn1-c1ccc(Cl)cc1	active: 39.8 µM	–
Cc1ccc(CS(=O)(=O)c2nsc(C)c2C#N)cc1	inconclusive: 0.141 µM [inhibitor, full curve, poor fit]	–
O=C(c1cc2c([nH]c1=O)CCCC2)N1CCc2c([nH]c3ccccc23)C1c1ccccc1F (centres undefined)	inconclusive: 89.1 µM [inhibitor, single point]	–
CCOC(=O)c1cc(-c2ccco2)nn1-c1ccc(C)cc1	inconclusive: 25.1 µM [inhibitor, full curve]	–
COc1ccc(/C=N\NC(=O)c2ccc(=O)[nH]n2)cc1O	active: 12.6 µM	–
Cc1nnc(SCc2cc(=O)oc3ccc4ccccc4c23)n1Cc1ccccc1	inconclusive: 39.8 µM [inhibitor, single point]	–
O=C(OCC(=O)c1cccs1)c1ccc(NC(=O)c2ccco2)cc1	inconclusive: 8.91 µM [inhibitor, full curve, poor fit]	–
NC1=NC(=O)/C(=C/c2cn(CCC(=O)O)nc2-c2ccc(F)cc2)S1	inactive	–
Cc1ccc2c(=O)cc(C(=O)Nc3ccc(S(=O)(=O)N4CCCCC4)cc3)oc2c1	inactive	–
COC(=O)C(NC(=O)CCc1c(C)nc2cc(-c3cccc(F)c3)nn2c1C)C(C)C (centres undefined)	inconclusive: 89.1 µM [inhibitor, single point]	–
O=C(OCC(=O)N(C1CCCCC1)C1CCCCC1)c1ccncc1	inconclusive: 89.1 µM [inhibitor, single point]	–
CCS(=O)(=O)C1=NN2C(=N)/C(=C\c3ccc(SCc4ccco4)o3)C(=O)N=C2S1	active: 11.2 µM	–
CC1=NN(c2ccccc2)C(=O)/C1=C/c1ccc(Cl)cc1	inactive	–
CCC(C)NCCCOc1ccc(C)cc1OC (centres undefined)	inconclusive: 25.1 µM [inhibitor, single point]	–
Cn1c(=O)c2nc3ccc(NC(=O)C(F)(F)F)cc3nc2n(C)c1=O	inactive	–
Oc1ccc(N=C/C=C/c2cccc(Br)c2)cc1-c1nc2ccccc2s1	active: 12.6 µM	–
CCOC(=O)c1c(C)[nH]c(C)c1S(=O)(=O)N1CCN(c2cccc(C)c2)C(C)C1 (centres undefined)	inactive	–
c1ccc(OCCn2c(-c3ccco3)nc3ccccc32)cc1	inconclusive: 3.55 µM [inhibitor, full curve]	–
[N-]=C=C1C(=S)NC(=O)[C@H]([n+]2ccccc2)[C@H]1c1ccc(Cl)cc1	inconclusive: 89.1 µM [inhibitor, single point]	–
CC(=O)Nc1sc2c(c1C(c1cccc(Cl)c1)N1CCN(CCO)CC1)CCCC2 (centres undefined)	inconclusive: 100 µM [inhibitor, single point]	–
Cc1nc(NS(=O)(=O)c2ccccc2)sc1NC(=O)Nc1ccccc1	inactive	–
COc1ccc(CC(NC(C)=O)C(=O)NC2CCN(S(=O)(=O)c3cccc4ccccc34)CC2)cc1OC (centres undefined)	inconclusive: 89.1 µM [inhibitor, single point]	–
